One assay deals with GST-Galectin-3 (human) (UniProt P17931). Nature of the assay: GST pull-down of in vitro translated 35S-labelled Myc-HA-TRIM.
In another assay the target is T1, GST-Galectin-8 (human).
T1 sequence: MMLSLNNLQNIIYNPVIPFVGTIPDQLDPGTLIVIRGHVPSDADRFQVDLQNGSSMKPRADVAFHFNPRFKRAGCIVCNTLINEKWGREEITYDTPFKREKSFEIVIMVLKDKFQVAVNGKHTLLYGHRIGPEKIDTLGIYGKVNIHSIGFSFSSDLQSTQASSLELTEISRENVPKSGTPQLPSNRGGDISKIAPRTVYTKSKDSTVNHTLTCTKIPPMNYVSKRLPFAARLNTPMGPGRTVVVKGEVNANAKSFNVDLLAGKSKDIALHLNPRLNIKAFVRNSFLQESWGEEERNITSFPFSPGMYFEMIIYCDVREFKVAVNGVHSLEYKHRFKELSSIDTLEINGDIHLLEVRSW
The description is as above.

By UniProt entry, the sequences of proteins in these tests, tags left out. Where a name states a change or a piece, a line headed by the entry shows the natural chain unless it says otherwise.
UniProt P17931: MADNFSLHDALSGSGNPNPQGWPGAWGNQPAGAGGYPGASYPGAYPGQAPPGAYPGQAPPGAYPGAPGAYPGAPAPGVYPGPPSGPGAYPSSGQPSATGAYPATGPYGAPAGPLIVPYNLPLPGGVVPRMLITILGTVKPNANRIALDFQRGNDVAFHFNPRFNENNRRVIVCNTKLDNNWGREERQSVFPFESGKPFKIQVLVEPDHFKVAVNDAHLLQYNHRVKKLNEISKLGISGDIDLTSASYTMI

Results are given in words; binding and its absence hold for the method and conditions named. Binding seen in cells or lysates may run through a third protein. Some entries that bind do so weakly or less than the wild type. Sequences can lack the tags named with a protein.

B1: 35S-Myc-HA-TRIM23 (in vitro translated) (protein, UniProt P36406 1-574, looked up, not shown: small tags and cut ends)
chain: MATLVVNKLGAGVDSGRQGSRGTAVVKVLECGVCEDVFSLQGDKVPRLLLCGHTVCHDCLTRLPLHGRAIRCPFDRQVTDLGDSGVWGLKKNFALLELLERLQNGPIGQYGAAEESIGISGESIIRCDEDEAHLASVYCTVCATHLCSECSQVTHSTKTLAKHRRVPLADKPHEKTMCSQHQVHAIEFVCLEEGCQTSPLMCCVCKEYGKHQGHKHSVLEPEANQIRASILDMAHCIRTFTEEISDYSRKLVGIVQHIEGGEQIVEDGIGMAHTEHVPGTAENARSCIRAYFYDLHETLCRQEEMALSVVDAHVREKLIWLRQQQEDMTILLSEVSAACLHCEKTLQQDDCRVVLAKQEITRLLETLQKQQQQFTEVADHIQLDASIPVTFTKDNRVHIGPKMEIRVVTLGLDGAGKTTILFKLKQDEFMQPIPTIGFNVETVEYKNLKFTIWDVGGKHKLRPLWKHYYLNTQAVVFVVDSSHRDRISEAHSELAKLLTEKELRDALLLIFANKQDVAGALSVEEITELLSLHKLCCGRSWYIQGCDARSGMGLYEGLDWLSRQLVAAGVLDVA
modifications: [35S]-methionine radiolabel
Turning to B1, the binding entry in the assay with GST-Galectin-3 (human) and with GST-Galectin-8 (human) was “binds” in each case.

B2: 35S-Myc-HA-TRIM49 (in vitro translated) (protein, UniProt P0CI25 1-452, looked up, not shown: small tags and cut ends)
chain: MNSGILQVFQGELICPLCMNYFIDPVTIDCGHSFCRPCFYLNWQDIPFLVQCSECTKSTEQINLKTNIHLKKMASLARKVSLWLFLSSEEQMCGTHRETKKIFCEVDRSLLCLLCSSSQEHRYHRHRPIEWAAEEHREKLLQKMQSLWEKACENHRNLNVETTRTRCWKDYVNLRLEAIRAEYQKMPAFHHEEEKHNLEMLKKKGKEIFHRLHLSKAKMAHRMEILRGMYEELNEMCHKPDVELLQAFGDILHRSESVLLHMPQPLNPELSAGPITGLRDRLNQFRVHITLHHEEANNDIFLYEILRSMCIGCDHQDVPYFTATPRSFLAWGVQTFTSGKYYWEVHVGDSWNWAFGVCNMYRKEKNQNEKIDGKAGLFLLGCVKNDIQCSLFTTSPLMLQYIPKPTSRVGLFLDCEAKTVSFVDVNQSSLIYTIPNCSFSPPLRPIFCCIHF
modifications: [35S]-methionine radiolabel
Take B2: the binding result with GST-Galectin-3 (human) and with GST-Galectin-8 (human) was “binds” throughout.

B3: 35S-Myc-HA-TRIM20 (in vitro translated) (protein, not shown: small tags and cut ends)
chain: MAKTPSDHLLSTLEELVPYDFEKFKFKLQNTSVQKEHSRIPRSQIQRARPVKMATLLVTYYGEEYAVQLTLQVLRAINQRLLAEELHRAAIQEYSTQENGTDDSAASSSLGENKPRSLKTPDHPEGNEGNGPRPYGGGAASLRCSQPEAGRGLSRKPLSKRREKASEGLDAQGKPRTRSPALPGGRSPGPCRALEGGQAEVRLRRNASSAGRLQGLAGGAPGQKECRPFEVYLPSGKMRPRSLEVTISTGEKAPANPEILLTLEEKTAANLDSATEPRARPTPDGGASADLKEGPGNPEHSVTGRPPDTAASPRCHAQEGDPVDGTCVRDSCSFPEAVSGHPQASGSRSPGCPRCQDSHERKSPGSLSPQPLPQCKRHLKQVQLLFCEDHDEPICLICSLSQEHQGHRVRPIEEVALEHKKKIQKQLEHLKKLRKSGEEQRSYGEEKAVSFLKQTEALKQRVQRKLEQVYYFLEQQEHFFVASLEDVGQMVGQIRKAYDTRVSQDIALLDALIGELEAKECQSEWELLQDIGDILHRAKTVPVPEKWTTPQEIKQKIQLLHQKSEFVEKSTKYFSETLRSEMEMFNVPELIGAQAHAVNVILDAETAYPNLIFSDDLKSVRLGNKWERLPDGPQRFDSCIIVLGSPSFLSGRRYWEVEVGDKTAWILGACKTSISRKGNMTLSPENGYWVVIMMKENEYQASSVPPTRLLIKEPPKRVGIFVDYRVGSISFYNVTARSHIYTFASCSFSGPLQPIFSPGTRDGGKNTAPLTICPVGGQGPD
modifications: [35S]-methionine radiolabel
On to B3, for which the binding entry in the assay with GST-Galectin-3 (human) and in the assay with GST-Galectin-8 (human) was “binds” each time.

B4: 35S-Myc-HA-TRIM17 (in vitro translated) (protein, UniProt Q9Y577 1-477, looked up, not shown: small tags and cut ends)
chain: MEAVELARKLQEEATCSICLDYFTDPVMTTCGHNFCRACIQLSWEKARGKKGRRKRKGSFPCPECREMSPQRNLLPNRLLTKVAEMAQQHPGLQKQDLCQEHHEPLKLFCQKDQSPICVVCRESREHRLHRVLPAEEAVQGYKLKLEEDMEYLREQITRTGNLQAREEQSLAEWQGKVKERRERIVLEFEKMNLYLVEEEQRLLQALETEEEETASRLRESVACLDRQGHSLELLLLQLEERSTQGPLQMLQDMKEPLSRKNNVSVQCPEVAPPTRPRTVCRVPGQIEVLRGFLEDVVPDATSAYPYLLLYESRQRRYLGSSPEGSGFCSKDRFVAYPCAVGQTAFSSGRHYWEVGMNITGDALWALGVCRDNVSRKDRVPKCPENGFWVVQLSKGTKYLSTFSALTPVMLMEPPSHMGIFLDFEAGEVSFYSVSDGSHLHTYSQATFPGPLQPFFCLGAPKSGQMVISTVTMWVKG
modifications: [35S]-methionine radiolabel
Turning to B4, the binding result with GST-Galectin-3 (human) and in the assay with GST-Galectin-8 (human) was “binds” each time.

The record behind these values is patent US20240261378A1.
